± gives the standard deviation of the averaged measurements. This is one part of the list.
Compound: Nc1nc2c(ncn2[C@@H]2O[C@H](COP(=O)(O)OP(=O)(O)OP(=O)(O)O)[C@@H](O)[C@H]2O)c(=O)[nH]1 [guanosine triphosphate]
Assay: NP40-soluble protein abundance relative to vehicle (solubility fold change) (ratio); higher = more soluble protein in presence of GTP
How it was run: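 Data come from three independent experiments in which Dounce-homogenised Jurkat crude lysate was treated at eight concentrations from 0.1 to 10 mM. Treatment ran 10 min at room temperature and then 3 min at 37 °C, after which 0.8% NP40 and benzonase were added for 60 min at 4 °C before ultracentrifugation. The supernatant underwent TMT labelling and LC-MS/MS, and vsn-normalised intensities were expressed as fold change against the detergent-processed vehicle in each replicate.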

Amino acid sequences for entries named in this document (tags omitted). A change or cut given only in a name is not applied to a line headed by its entry.
UniProt P26885: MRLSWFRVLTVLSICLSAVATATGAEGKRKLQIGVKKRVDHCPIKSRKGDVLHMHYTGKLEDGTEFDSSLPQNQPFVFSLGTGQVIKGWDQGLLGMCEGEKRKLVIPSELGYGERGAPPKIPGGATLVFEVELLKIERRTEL
UniProt P43897: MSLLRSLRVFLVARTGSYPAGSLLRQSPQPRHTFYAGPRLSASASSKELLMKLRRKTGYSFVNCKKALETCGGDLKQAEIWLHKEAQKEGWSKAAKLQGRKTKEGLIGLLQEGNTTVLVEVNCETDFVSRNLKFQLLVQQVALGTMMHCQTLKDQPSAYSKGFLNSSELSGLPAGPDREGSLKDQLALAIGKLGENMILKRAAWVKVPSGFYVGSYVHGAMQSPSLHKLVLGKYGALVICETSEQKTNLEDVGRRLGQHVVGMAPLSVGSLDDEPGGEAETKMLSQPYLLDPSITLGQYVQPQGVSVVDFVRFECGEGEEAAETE
UniProt P32929, whole entry: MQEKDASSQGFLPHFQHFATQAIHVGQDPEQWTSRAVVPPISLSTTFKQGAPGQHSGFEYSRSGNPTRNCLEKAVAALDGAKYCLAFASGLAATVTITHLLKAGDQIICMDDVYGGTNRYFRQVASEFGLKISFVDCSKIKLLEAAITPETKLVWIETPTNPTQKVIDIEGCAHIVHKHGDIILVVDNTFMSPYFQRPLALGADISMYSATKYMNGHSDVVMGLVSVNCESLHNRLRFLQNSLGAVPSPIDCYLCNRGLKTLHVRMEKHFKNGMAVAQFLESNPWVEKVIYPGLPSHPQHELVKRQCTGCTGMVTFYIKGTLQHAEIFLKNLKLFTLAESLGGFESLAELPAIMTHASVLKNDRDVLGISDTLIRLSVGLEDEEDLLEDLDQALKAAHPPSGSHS
UniProt P43362: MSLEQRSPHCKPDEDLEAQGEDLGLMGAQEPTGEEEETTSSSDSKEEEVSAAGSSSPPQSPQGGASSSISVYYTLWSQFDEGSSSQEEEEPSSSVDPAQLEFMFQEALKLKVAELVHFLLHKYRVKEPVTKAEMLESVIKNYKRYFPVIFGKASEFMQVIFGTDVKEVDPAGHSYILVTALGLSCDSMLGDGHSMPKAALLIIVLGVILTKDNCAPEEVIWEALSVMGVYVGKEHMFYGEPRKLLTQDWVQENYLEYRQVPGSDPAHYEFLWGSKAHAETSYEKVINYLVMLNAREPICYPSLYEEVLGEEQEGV
UniProt P27361, whole entry: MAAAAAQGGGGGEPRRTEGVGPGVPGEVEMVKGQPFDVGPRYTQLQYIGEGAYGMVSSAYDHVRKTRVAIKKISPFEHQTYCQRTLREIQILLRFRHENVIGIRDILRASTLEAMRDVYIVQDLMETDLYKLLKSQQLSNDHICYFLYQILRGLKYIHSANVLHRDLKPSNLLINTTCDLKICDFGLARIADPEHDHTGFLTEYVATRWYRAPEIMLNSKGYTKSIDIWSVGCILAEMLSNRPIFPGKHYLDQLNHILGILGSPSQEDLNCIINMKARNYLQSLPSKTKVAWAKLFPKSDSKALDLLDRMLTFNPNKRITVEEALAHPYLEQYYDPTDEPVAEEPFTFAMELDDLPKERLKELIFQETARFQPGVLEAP
UniProt P49454: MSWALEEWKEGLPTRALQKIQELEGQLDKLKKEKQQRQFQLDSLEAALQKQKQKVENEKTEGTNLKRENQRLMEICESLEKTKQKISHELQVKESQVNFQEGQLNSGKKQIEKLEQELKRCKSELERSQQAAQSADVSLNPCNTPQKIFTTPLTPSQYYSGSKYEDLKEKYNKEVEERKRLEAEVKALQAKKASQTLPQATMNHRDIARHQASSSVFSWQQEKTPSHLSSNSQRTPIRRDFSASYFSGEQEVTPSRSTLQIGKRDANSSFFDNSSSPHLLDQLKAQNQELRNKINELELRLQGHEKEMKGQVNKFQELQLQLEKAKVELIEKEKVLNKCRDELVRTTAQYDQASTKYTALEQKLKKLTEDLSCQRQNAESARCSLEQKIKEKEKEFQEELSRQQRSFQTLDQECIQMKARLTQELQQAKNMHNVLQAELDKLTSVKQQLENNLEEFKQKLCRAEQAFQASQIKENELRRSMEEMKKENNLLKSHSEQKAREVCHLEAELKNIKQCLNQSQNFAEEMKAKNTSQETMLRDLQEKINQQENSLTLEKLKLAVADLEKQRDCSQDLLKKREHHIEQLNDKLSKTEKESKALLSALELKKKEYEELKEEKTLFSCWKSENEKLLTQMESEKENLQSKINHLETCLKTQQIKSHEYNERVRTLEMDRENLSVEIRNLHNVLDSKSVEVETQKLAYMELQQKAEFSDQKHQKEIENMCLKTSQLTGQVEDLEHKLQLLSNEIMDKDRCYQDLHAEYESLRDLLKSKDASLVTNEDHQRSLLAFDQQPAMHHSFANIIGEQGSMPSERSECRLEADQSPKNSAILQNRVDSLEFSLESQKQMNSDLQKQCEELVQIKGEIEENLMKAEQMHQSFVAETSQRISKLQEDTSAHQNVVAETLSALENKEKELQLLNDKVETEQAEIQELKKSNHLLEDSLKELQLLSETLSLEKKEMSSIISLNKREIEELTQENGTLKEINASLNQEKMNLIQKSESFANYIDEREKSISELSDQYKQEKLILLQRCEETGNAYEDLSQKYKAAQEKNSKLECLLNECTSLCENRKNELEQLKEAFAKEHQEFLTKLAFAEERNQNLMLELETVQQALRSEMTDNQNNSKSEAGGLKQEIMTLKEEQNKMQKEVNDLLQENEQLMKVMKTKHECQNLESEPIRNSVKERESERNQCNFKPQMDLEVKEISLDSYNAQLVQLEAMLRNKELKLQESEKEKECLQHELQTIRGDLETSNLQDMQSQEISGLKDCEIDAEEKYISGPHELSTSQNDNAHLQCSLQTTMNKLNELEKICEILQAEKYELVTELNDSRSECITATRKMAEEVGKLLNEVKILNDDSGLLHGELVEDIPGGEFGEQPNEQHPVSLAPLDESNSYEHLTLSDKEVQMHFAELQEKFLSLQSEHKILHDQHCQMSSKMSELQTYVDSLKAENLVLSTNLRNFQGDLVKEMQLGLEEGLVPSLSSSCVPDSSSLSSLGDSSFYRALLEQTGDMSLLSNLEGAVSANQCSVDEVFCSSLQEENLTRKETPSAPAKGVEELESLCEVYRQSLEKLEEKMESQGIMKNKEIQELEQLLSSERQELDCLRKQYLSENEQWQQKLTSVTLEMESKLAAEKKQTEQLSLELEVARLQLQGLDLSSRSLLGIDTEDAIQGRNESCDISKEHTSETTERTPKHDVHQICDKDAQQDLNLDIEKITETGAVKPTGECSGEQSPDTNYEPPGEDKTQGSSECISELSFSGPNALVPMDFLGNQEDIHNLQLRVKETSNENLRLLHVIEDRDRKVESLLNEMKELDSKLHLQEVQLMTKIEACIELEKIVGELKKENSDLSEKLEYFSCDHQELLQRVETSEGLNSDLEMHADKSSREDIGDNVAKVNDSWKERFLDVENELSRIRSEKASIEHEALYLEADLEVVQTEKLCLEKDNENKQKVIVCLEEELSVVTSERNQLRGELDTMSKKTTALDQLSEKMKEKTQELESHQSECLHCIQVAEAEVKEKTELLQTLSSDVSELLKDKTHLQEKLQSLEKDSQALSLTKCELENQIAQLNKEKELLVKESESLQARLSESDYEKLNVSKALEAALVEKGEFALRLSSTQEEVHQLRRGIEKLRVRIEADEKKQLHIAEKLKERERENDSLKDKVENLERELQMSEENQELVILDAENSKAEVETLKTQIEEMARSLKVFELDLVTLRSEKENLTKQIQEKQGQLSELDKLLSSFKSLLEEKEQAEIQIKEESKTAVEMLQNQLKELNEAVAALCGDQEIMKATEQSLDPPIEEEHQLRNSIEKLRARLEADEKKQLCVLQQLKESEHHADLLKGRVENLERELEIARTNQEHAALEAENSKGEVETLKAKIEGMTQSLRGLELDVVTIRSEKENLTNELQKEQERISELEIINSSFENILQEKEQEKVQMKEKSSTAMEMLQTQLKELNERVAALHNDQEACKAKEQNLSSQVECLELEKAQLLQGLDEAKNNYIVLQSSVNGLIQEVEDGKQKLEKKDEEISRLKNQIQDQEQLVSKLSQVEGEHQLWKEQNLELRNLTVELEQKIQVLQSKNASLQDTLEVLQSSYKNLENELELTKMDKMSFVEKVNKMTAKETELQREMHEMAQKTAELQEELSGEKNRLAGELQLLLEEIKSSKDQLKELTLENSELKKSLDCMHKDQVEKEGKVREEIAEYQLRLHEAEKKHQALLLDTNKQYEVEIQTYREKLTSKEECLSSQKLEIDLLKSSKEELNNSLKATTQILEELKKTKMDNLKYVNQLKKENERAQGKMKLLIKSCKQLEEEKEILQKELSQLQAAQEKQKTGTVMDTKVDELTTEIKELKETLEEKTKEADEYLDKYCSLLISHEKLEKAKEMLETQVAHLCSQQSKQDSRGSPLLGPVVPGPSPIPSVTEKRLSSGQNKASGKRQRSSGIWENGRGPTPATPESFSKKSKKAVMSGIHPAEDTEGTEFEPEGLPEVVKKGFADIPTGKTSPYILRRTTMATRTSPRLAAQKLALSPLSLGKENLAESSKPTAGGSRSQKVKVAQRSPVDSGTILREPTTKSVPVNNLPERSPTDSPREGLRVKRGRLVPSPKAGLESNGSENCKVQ
UniProt P48739: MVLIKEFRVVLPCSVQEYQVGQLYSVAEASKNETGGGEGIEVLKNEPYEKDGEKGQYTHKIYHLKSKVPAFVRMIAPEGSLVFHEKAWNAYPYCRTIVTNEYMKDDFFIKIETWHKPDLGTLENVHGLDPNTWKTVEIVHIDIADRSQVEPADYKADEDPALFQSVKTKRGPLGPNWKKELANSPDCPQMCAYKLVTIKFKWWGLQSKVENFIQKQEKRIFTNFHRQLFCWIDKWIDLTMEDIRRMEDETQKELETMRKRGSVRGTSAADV
UniProt P49257: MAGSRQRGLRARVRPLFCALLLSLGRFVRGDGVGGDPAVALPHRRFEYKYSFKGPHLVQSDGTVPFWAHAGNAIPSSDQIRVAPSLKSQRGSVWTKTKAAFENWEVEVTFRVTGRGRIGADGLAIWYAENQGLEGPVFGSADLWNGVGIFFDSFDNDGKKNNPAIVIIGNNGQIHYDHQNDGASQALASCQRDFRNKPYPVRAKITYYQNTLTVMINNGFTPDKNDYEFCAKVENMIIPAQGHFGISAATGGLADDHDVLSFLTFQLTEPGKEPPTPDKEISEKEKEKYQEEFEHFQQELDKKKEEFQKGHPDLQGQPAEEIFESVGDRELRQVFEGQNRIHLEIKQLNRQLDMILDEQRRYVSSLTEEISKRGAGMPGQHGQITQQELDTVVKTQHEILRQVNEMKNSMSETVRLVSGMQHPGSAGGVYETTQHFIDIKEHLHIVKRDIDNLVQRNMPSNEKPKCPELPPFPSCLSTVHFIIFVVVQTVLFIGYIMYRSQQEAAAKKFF
UniProt P35249, whole entry: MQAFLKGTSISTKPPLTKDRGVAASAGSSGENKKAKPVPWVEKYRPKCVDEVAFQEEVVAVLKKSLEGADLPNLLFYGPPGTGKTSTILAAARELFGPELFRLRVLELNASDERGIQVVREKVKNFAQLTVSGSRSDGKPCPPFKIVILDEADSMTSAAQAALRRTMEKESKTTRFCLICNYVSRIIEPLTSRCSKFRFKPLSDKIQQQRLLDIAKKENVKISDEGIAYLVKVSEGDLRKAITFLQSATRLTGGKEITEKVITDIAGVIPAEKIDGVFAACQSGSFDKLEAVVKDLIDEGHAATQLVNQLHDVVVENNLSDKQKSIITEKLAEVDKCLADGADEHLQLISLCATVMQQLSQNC
UniProt P43007: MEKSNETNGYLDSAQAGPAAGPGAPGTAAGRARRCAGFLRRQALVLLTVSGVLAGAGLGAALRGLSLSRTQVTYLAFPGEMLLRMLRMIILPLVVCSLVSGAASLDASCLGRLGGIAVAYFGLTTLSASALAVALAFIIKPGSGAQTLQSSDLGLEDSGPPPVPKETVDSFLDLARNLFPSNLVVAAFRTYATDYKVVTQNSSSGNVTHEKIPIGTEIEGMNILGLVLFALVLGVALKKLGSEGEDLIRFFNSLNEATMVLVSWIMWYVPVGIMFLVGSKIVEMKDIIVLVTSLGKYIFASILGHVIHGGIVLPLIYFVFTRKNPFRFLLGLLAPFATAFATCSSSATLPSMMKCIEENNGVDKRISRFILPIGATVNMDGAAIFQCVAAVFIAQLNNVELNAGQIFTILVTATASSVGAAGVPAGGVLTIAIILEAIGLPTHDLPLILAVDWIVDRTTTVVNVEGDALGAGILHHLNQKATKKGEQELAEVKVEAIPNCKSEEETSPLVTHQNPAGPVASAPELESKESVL

Row | Target | NP40-soluble protein abundance (concentration: 0.1mM) | NP40-soluble protein abundance (concentration: 0.5mM) | NP40-soluble protein abundance (concentration: 1mM) | NP40-soluble protein abundance (concentration: 2mM) | NP40-soluble protein abundance (concentration: 4mM) | NP40-soluble protein abundance (concentration: 6mM) | NP40-soluble protein abundance (concentration: 8mM) | NP40-soluble protein abundance (concentration: 10mM)
1 | RPL3 (UniProt P39023) | 1 ± 0.11 | 1.05 ± 0.2 | 0.979 ± 0.18 | 0.983 ± 0.27 | 0.905 ± 0.25 | 0.894 ± 0.23 | 0.776 ± 0.13 | 0.915 ± 0.21
2 | FKBP2 (UniProt P26885) | 0.904 ± 0.018 | 0.873 ± 0.072 | 1 ± 0.069 | 0.954 ± 0.063 | 0.902 ± 0.11 | 0.918 ± 0.09 | 0.858 ± 0.12 | 0.915 ± 0.084
3 | TSFM (UniProt P43897) | 0.917 ± 0.12 | 0.909 ± 0.095 | 0.883 ± 0.11 | 0.858 ± 0.1 | 0.855 ± 0.091 | 0.879 ± 0.091 | 0.859 ± 0.11 | 0.88 ± 0.11
4 | UniProt P32929 and related entries | 1.03 ± 0.066 | 0.984 ± 0.084 | 0.902 ± 0.011 | 0.909 ± 0.085 | 0.893 ± 0.047 | 0.888 ± 0.047 | 0.875 ± 0.0037 | 0.847 ± 0.035
5 | MAGEA9 (UniProt P43362) | 1.19 ± 0.096 | 1.04 ± 0.13 | 1.17 ± 0.048 | 0.971 ± 0.094 | 1.14 ± 0.14 | 1.07 ± 0.041 | 1.02 ± 0.22 | 1.03 ± 0.019
6 | UniProt P27361 | 0.954 ± 0.069 | 0.96 ± 0.059 | 0.923 ± 0.053 | 0.897 ± 0.059 | 0.901 ± 0.058 | 0.89 ± 0.043 | 0.879 ± 0.072 | 0.877 ± 0.086
7 | UniProt P35240 and related entries | 0.912 ± 0.09 | 0.926 ± 0.1 | 0.901 ± 0.12 | 0.876 ± 0.16 | 0.839 ± 0.15 | 0.911 ± 0.11 | 0.851 ± 0.06 | 0.896 ± 0.11
8 | CENPF (UniProt P49454) | 0.987 ± 0.026 | 0.995 ± 0.045 | 1.03 ± 0.048 | 1.04 ± 0.061 | 1.06 ± 0.045 | 1.06 ± 0.055 | 1.1 ± 0.058 | 1.11 ± 0.086
9 | UniProt P48739 and related entries | 1.01 ± 0.022 | 1.02 ± 0.04 | 0.924 ± 0.028 | 0.888 ± 0.035 | 0.881 ± 0.052 | 0.879 ± 0.027 | 0.87 ± 0.072 | 0.83 ± 0.07
10 | LMAN1 (UniProt P49257) | 1.015 ± 0.0096 | 1.02 ± 0.025 | 0.965 ± 0.028 | 0.941 ± 0.024 | 0.925 ± 0.035 | 0.928 ± 0.028 | 0.927 ± 0.025 | 0.891 ± 0.045
11 | MCM5 (UniProt P33992) | 1.05 ± 0.077 | 1.07 ± 0.12 | 0.998 ± 0.1 | 1.03 ± 0.16 | 1.05 ± 0.13 | 1.03 ± 0.14 | 1.01 ± 0.1 | 0.97 ± 0.12
12 | RFC4 (UniProt P35249) | 0.984 ± 0.017 | 1.025 ± 0.0049 | 1.12 ± 0.045 | 1.1 ± 0.06 | 1.16 ± 0.064 | 1.19 ± 0.053 | 1.21 ± 0.047 | 1.19 ± 0.11
13 | SLC1A4 (UniProt P43007) | 0.997 ± 0.05 | 0.971 ± 0.052 | 0.981 ± 0.05 | 0.957 ± 0.071 | 0.94 ± 0.08 | 0.918 ± 0.052 | 0.956 ± 0.038 | 0.949 ± 0.084

2 entries drawn at random from those above:
Row | Target | NP40-soluble protein abundance (concentration: 0.1mM) | NP40-soluble protein abundance (concentration: 0.5mM) | NP40-soluble protein abundance (concentration: 1mM) | NP40-soluble protein abundance (concentration: 2mM) | NP40-soluble protein abundance (concentration: 4mM) | NP40-soluble protein abundance (concentration: 6mM) | NP40-soluble protein abundance (concentration: 8mM) | NP40-soluble protein abundance (concentration: 10mM)
10 | LMAN1 (UniProt P49257) | 1.015 ± 0.0096 | 1.02 ± 0.025 | 0.965 ± 0.028 | 0.941 ± 0.024 | 0.925 ± 0.035 | 0.928 ± 0.028 | 0.927 ± 0.025 | 0.891 ± 0.045
2 | FKBP2 (UniProt P26885) | 0.904 ± 0.018 | 0.873 ± 0.072 | 1 ± 0.069 | 0.954 ± 0.063 | 0.902 ± 0.11 | 0.918 ± 0.09 | 0.858 ± 0.12 | 0.915 ± 0.084

Reference: the supplement of paper PMC6411743
